In article PMC5415634:

B1: V5-tagged Ago2 (protein, UniProt C5J0H4 1-992)
chain: MILNARYLYIPCRQKQQQQQQQPQQQQQHQQKQQSQQQQQQQQQQQRSKEQGSQQQQRPQQQAQQQQPSQQQQQSQKQQHPQQQQQQRPQKQQQQFQQDQRPQQQQQQLQKQQQQQGQSWRPQSHDPSPASGSHSHSSSPSHAAALERVEEDFSKIKIDKQKIHSSALLPVLMRPNAHGTRGRAIKVEVNYIQLLLERLIPTAYHYDVDIQPAASRKWQRLAFSEFTKQMFPNHGFAFDGHKNAYAARRLQADVYEQEVKVRDEGRERRFKVAMKEAAVLDMTCLKTYMNNGSTLDKPMSAIQCLDIVLRTAYENNPRFIKFKKSIYVKPDRPDDIGSNHELWYGLFQSALLGARPFLNIDVSHKAFPTGGPVLRILVDMNRGQVPDRVTDWMSRDLHDFLKGMELSYTGPDGVSKLFKYNSIKSPANQQKFKLENGTEMTIDQYFRSKNKQLRYPSLPVLHVGSLVRNVMLPIELCSIPPGQALNKKHPDQCTQFIIRKSATDTATRKRKIMDLFNQIGYNNAPTIKEFGVSVGNNFETVDGRILDPPELSYRNDRRVKPMRGVWRADNMNFIIPSTEITRRELSWTILNLDGRTRPDAIDEFGRNIYQMSLKQGVQLQQFSMKNNFYEPRDMRFAVKDLDNIFDELKKRKIDLVFVVIPSPGRDGDVYAKVKQKAELCVGLLTQCIKSFTLDKKRGDMSTISNIWLKINAKTNGSNHVLAKNFKPPIARKTVMYVGADVTHPSPEQTNIPSVVGVAASYDLEGFRYNCCYRLQGPKDEMIRDLQNIVIKQLRQFKQTNQSLPELIMYYRDGVSEGQFQEVLTIELRAMQAAAASVQQGYKPNITFIVVQKRHHARFFPTANCPTEGRNNNVQPGTIVDRYITAPNQYQFFLVSHAAVQGVAKPTKYCVLYDDENCNPDQLQALTYYLCHMFTRCNRAVSYPAPTYYAHLAAYRGRVYIKDRPLNMNNLTKEYERMQIRTEIQDGHPMFFV

What was measured:
Test in all cases: co-IP; Aag2 cell lines stably expressing a V5-tagged protein transfected with a myc-tagged protein expression construct; lysates 48 h p.t. (150 mM NaCl, 5 mM MgCl2, 20 mM HEPES pH 7.4, 0.5% Triton X-100); IP with mouse anti-myc and protein G magnetic beads at 4°C; Western blot for V5 and myc tags
[1] = target: T1, myc-tagged Ago2 (A. aegypti) (UniProt C5J0H4)
T1 sequence: B1 chain

[2] = target: myc-tagged Dcr2 (A. aegypti)
[3] = target: myc-tagged Piwi4 (A. aegypti)

Molecule	binding [1]	binding [2]	binding [3]
V5-tagged Piwi4 (A. aegypti)	binds	–	–
V5-tagged Dcr2 (A. aegypti)	binds	–	–
B1	–	binds	binds

These are yes or no findings as the source states them, for the method shown. In cells and extracts the contact can be indirect. Binding calls can cover weak binding; strength is not graded here. Sequences can lack the tags named with a protein.
